Among the data in PMC5828529 are binding values, retold here.

Results are given in words; binding and its absence hold for the method and conditions named. Binding seen in cells or lysates may run through a third protein. These calls come from enrichment with a bait or labelling near it, and not all partners need be listed. For part of these data: A no says only that the protein was not detected with the bait.

Experiment [1] concerns the target T1, Mer2-TAP (S. cerevisiae), P21651.
T1 chain: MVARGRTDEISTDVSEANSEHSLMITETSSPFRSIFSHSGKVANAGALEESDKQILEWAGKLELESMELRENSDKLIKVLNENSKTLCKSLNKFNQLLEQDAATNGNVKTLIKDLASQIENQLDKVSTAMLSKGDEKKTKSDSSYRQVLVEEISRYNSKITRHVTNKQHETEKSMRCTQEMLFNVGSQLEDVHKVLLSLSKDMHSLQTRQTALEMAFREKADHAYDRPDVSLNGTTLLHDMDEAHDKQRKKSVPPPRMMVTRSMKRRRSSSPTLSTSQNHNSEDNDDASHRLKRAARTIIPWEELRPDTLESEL
Put plainly: affinity purification with mass spectrometry; Mer2-TAP purified from meiotic cells (VBD1402, t = 3.5 hr), TAP lysis buffer with 300 mM NaCl, 0.5% NP-40; untagged control ORD7339. The following applies: remark: other sources report otherwise.

The next experiment has as its target T2, Spp1-TAP (S. cerevisiae) (UniProt Q03012).
T2 sequence: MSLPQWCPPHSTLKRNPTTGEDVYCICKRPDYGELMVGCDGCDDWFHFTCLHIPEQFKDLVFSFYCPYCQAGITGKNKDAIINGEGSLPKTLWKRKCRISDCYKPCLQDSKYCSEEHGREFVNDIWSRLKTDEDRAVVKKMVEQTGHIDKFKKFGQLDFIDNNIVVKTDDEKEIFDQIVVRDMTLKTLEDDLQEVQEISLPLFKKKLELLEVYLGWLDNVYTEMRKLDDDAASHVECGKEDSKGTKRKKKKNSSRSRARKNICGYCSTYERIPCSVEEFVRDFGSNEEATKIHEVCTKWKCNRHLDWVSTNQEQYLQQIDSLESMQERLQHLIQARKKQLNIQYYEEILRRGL
In words: affinity purification with mass spectrometry; Spp1-TAP purified from SET1 meiotic cells (VBD1266, t = 3.5 hr), TAP lysis buffer with 300 mM NaCl, 0.5% NP-40; untagged control ORD7339; label-free nanoLC-MS/MS, three biological replicates.

Another experiment concerns the target T3, Mer2-TAP (S. cerevisiae) (UniProt P21651).
T3 sequence: T1 chain
In words: affinity purification with mass spectrometry; Mer2-TAP purified from meiotic cells (VBD1402, t = 3.5 hr), TAP lysis buffer with 300 mM NaCl, 0.5% NP-40; untagged control ORD7339.

B1: Mei4 (endogenous), P29467 1-408 (protein)
chain: MSRGKLEDMEQKETSEVDWIICFALIQSRNPTLWKRALSRKKGDVEDVGALKSEKNLKINPRENSKHIYKWVAPFENGFLNNKSLFAHLEPIYNFLCQNKYKSFEDAVGLKELQSFSKDVSTADINNWFLPRYKILLKILSLKTKEIDFRGLSQVFQTLQILLVSHYSHRIDSDSSFKRTLIDVHVFNFIAKFLFNRILLKKNQNDPKWLQNFYDQGDGKHLCDKVDYKRLCSLHFTLIYSIINIQLIKIKTNQTFEPQILKYVSVLKLIEHILIIIESLIHVLIRFVSKHKLICINRKKAYCRVYLERELSLKKTYLKNFYSVISGVPEKELGGLLKILKIVILSLLETFESIEWQHLKPFLEKFPAHEISLQKKRKYIQAALLITAERNLIARFRLSRWFNETENI
As to B1, the binding result in experiment [1] is “no binding”.

B2: Set1 (endogenous) (enzyme, UniProt P38827 1-1080)
chain: MSNYYRRAHASSGSYRQPQEQPQYSRSGHYQYSNGHSHQQYSSQYNQRRRYNHNDGTRRRYNDDRPHSSNNASTRQYYATNNSQSGPYVNKKSDISSRRGMSQSRYSNSNVHNTLASSSGSLPTESALLLQQRPPSVLRYNTDNLKSKFHYFDPIKGEFFNKDKMLSWKATDKEFSETGYYVVKELQDGQFKFKIKHRHPEIKASDPRNENGIMTSGKVATHRKCRNSLILLPRISYDRYSLGPPPSCEIVVYPAQDSTTTNIQDISIKNYFKKYGEISHFEAFNDPNSALPLHVYLIKYASSDGKINDAAKAAFSAVRKHESSGCFIMGFKFEVILNKHSILNNIISKFVEINVKKLQKLQENLKKAKEKEAENEKAKELQGKDITLPKEPKVDTLSHSSGSEKRIPYDLLGVVNNRPVLHVSKIFVAKHRFCVEDFKYKLRGYRCAKFIDHPTGIYIIFNDIAHAQTCSNAESGNLTIMSRSRRIPILIKFHLILPRFQNRTRFNKSSSSSNSTNVPIKYESKEEFIEATAKQILKDLEKTLHVDIKKRLIGPTVFDALDHANFPELLAKRELKEKEKRQQIASKIAEDELKRKEEAKRDFDLFGLYGGYAKSNKRNLKRHNSLALDHTSLKRKKLSNGIKPMAHLLNEETDSKETTPLNDEGITRVSKEHDEEDENMTSSSSEEEEEEAPDKKFKSESEPTTPESDHLHGIKPLVPDQNGSSDVLDASSMYKPTATEIPEPVYPPEEYDLKYSQTLSSMDLQNAIKDEEDMLILKQLLSTYTPTVTPETSAALEYKIWQSRRKVLEEEKASDWQIELNGTLFDSELQPGSSFKAEGFRKIADKLKINYLPHRRRVHQPLNTVNIHNERNEYTPELCQREESSNKEPSDSVPQEVSSSRDNRASNRRFQQDIEAQKAAIGTESELLSLNQLNKRKKPVMFARSAIHNWGLYALDSIAAKEMIIEYVGERIRQPVAEMREKRYLKNGIGSSYLFRVDENTVIDATKKGGIARFINHCCDPNCTAKIIKVGGRRRIVIYALRDIAASEELTYDYKFEREKDDEERLPCLCGAPNCKGFLN
As for B2, the binding entry with Spp1-TAP (S. cerevisiae) is listed as “binds”.

B3: Spp1 (endogenous) (protein, UniProt Q03012 1-353)
chain: T2 sequence
As for B3, the binding entry with Mer2-TAP (S. cerevisiae) is given as “binds”.

B4: Mer2 (endogenous) (protein, UniProt P21651 1-314)
chain: T1 chain
In the case of B4, the binding result with Spp1-TAP (S. cerevisiae) is listed as “binds”.

B5: Rec114 (endogenous), P32841 1-428 (protein)
chain: MYEYCSVVIKKYSKYTIPSFAPNGFQSMLEPPQIDKWQHLSANCTLQFRVLLMDSRQILINVVLNNSTLLENIRLPLGDNQDLIQFSCKSPIISCKYISEEFGPRMLRRFQMNLPNDVEFNRTVVSLKNLNFVLRTARTSIAQSTITSQVQGNNNGTKVCFTEGPKVSSYTNPNTQFQTQNMIMDFSQRYQEESERESNNRSNITLPHDSIQIAQQIWPNTDLNVVQSSQDLNTPMATQTVLGRPESLIVQPLEVSQSPPNTTNCLPNAENKKKKVDTTSDFTSRKEIALCKTGLLETIHIPKERESQMQSVTGLDATPTIIWSPGKDNTAKKNTSNKKNIDDKLTNPQKSGNTHTPDRNKEVLPNGTLNETRKEASPSEGLTIRVKNVNRNASRKISKRLIKEKLKDEEFMKWVNKVETVLNKMFEK
Regarding B5, in experiment [1], the binding result is “no binding”.

B6: Swd1 (endogenous) (protein, UniProt P39706 1-426)
chain: MNILLQDPFAVLKEHPEKLTHTIENPLRTECLQFSPCGDYLALGCANGALVIYDMDTFRPICVPGNMLGAHVRPITSIAWSPDGRLLLTSSRDWSIKLWDLSKPSKPLKEIRFDSPIWGCQWLDAKRRLCVATIFEESDAYVIDFSNDPVASLLSKSDEKQLSSTPDHGYVLVCTVHTKHPNIIIVGTSKGWLDFYKFHSLYQTECIHSLKITSSNIKHLIVSQNGERLAINCSDRTIRQYEISIDDENSAVELTLEHKYQDVINKLQWNCILFSNNTAEYLVASTHGSSAHELYIWETTSGTLVRVLEGAEEELIDINWDFYSMSIVSNGFESGNVYVWSVVIPPKWSALAPDFEEVEENVDYLEKEDEFDEVDEAEQQQGLEQEEEIAIDLRTREQYDVRGNNLLVERFTIPTDYTRIIKMQSS
Take B6: in the experiment with Mer2-TAP (S. cerevisiae), the binding result was “no binding”.
